Measurements published in publication PMC10529913.
These are yes or no findings as the source states them, for the method shown. Binding seen in cells or lysates may run through a third protein. Some binding calls cover weakened binding; strength is not graded here.

Protein sequences, listed by entry. Tags and fused reporters are not part of them.
UniProt P34881: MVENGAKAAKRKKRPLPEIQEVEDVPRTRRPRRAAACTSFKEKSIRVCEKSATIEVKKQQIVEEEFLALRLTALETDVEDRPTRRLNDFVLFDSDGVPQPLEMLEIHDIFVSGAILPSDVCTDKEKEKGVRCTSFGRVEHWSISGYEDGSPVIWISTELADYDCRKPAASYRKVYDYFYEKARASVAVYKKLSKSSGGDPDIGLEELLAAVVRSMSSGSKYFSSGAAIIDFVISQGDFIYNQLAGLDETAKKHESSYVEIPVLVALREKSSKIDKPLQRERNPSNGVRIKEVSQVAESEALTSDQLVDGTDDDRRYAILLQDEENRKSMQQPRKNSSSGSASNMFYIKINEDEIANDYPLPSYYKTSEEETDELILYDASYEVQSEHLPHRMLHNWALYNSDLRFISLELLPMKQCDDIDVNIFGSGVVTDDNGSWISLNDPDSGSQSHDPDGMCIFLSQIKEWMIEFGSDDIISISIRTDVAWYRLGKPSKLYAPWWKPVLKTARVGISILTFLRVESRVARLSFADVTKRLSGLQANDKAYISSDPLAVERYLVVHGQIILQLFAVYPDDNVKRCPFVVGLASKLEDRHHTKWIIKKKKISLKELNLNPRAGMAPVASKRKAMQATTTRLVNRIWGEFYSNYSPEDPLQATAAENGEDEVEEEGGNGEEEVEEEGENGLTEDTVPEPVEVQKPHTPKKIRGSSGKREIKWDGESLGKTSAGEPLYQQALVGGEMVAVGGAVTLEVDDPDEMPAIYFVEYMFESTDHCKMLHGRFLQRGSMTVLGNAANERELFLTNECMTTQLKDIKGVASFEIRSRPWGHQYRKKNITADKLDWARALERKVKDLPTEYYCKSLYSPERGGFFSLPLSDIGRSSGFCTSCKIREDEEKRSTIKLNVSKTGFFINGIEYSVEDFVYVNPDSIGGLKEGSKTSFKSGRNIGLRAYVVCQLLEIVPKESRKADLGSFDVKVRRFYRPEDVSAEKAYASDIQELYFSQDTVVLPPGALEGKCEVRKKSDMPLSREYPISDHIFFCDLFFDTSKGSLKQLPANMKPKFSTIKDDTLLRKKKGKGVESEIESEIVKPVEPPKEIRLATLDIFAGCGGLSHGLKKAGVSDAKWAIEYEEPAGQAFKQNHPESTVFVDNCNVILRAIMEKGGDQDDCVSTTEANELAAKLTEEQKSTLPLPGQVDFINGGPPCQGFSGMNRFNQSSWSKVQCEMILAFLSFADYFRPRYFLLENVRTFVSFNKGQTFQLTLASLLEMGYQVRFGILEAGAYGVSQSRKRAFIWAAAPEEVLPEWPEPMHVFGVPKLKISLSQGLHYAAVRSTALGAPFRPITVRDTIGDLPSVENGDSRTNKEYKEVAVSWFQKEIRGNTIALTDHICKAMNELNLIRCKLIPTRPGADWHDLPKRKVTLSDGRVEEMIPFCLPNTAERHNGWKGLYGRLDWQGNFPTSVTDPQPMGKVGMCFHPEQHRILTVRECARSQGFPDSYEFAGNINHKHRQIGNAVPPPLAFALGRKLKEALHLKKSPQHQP

Molecular target: DDM1 fused with N-terminal YFP (YFPN) (Arabidopsis) (UniProt Q9XFH4)
Assay: split reporter; bimolecular fluorescence complementation, transient expression of split YFP (text: GFP) fusion proteins in Arabidopsis leaves; signal in the nucleus

binding: binds
Substance: MET1 with C-terminal YFP (YFPC) (from UniProt P34881 1-1534) (enzyme)
